Experimental data as given in PMC9658184.
These are yes or no findings as the source states them, for the method shown. Binding seen in cells or lysates may run through a third protein. Some binding calls cover weakened binding; strength is not graded here.

Chains of the proteins cited; added tags and fusions are not shown. Lines headed by an entry give the natural chain unless they say otherwise; changes in a name come on top. A line that says so, or that is headed by a name, gives the form on record, which may keep a tag or linker.
UniProt Q38HM4: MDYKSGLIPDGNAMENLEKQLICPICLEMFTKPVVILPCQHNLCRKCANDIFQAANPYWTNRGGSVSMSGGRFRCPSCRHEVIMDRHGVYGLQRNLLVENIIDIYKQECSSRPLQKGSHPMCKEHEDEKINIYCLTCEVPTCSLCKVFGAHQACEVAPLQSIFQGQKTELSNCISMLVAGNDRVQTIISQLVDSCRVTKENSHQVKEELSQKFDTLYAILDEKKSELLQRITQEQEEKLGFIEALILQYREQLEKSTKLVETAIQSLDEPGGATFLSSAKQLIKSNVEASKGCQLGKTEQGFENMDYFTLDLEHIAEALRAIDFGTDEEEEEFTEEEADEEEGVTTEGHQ
UniProt Q91Z63: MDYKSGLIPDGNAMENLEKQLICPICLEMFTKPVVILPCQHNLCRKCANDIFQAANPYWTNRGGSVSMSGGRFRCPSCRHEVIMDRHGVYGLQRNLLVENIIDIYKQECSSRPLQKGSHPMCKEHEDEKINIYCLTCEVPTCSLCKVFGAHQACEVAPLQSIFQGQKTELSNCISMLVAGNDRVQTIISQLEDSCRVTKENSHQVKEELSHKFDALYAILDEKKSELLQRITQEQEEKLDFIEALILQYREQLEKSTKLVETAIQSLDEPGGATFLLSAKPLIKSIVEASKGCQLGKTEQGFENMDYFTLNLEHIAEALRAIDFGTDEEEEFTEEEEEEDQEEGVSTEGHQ
SERCA2a (sarcoplasmic reticulum Ca2+-ATPase 2a), mouse, endogenous in cardiac tissue (O55143-2, form named): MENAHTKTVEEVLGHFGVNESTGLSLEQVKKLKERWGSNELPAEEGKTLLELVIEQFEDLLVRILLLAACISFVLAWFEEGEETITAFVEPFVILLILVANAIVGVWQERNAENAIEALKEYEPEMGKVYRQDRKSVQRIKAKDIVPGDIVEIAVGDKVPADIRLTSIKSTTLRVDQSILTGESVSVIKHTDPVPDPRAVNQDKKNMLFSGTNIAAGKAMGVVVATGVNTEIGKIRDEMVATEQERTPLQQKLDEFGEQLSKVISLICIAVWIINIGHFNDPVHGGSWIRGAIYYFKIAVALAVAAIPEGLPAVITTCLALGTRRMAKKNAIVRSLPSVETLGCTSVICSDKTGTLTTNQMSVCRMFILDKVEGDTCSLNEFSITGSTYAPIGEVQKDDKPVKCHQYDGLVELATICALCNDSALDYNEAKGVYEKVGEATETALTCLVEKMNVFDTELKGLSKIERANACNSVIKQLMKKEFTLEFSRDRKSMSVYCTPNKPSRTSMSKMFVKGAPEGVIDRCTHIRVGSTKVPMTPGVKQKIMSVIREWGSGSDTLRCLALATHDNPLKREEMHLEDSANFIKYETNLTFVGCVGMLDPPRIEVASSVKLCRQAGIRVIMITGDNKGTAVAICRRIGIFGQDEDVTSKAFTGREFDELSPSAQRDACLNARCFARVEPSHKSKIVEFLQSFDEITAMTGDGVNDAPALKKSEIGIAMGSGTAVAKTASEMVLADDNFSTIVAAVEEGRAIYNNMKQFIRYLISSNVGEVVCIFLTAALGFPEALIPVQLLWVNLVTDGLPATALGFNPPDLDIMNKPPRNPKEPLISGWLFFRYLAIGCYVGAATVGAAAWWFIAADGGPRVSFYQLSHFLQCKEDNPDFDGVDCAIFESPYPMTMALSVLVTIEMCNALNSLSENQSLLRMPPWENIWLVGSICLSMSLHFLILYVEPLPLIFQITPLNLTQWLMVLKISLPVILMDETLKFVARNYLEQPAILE

Tests used:
[1] = target: SERCA2a (sarcoplasmic reticulum Ca2+-ATPase 2a), rat, endogenous in neonatal rat cardiomyocytes (rat (endogenous in neonatal rat cardiomyocytes)) (UniProt P11507); test: co-IP; neonatal rat cardiomyocytes (control, high glucose + palmitate + oleate, with or without NaHS) immunoprecipitated with anti-SERCA2a antibody on Protein G Plus agarose, 4 °C overnight; immunoblot for MuRF1
[2] = target: Muscle RING Finger-1 (MuRF1), mouse, endogenous in cardiac tissue (mouse (endogenous in cardiac tissue)) (UniProt Q38HM4); test: co-IP; cardiac tissue lysate of mice (control, db/db, with or without NaHS) immunoprecipitated with anti-MuRF1 antibody on Protein G Plus agarose, 4 °C overnight; immunoblot for SERCA2a

| binding [1] | binding [2] | Substance |
| --- | --- | --- |
| binds | – | Muscle RING Finger-1 (MuRF1), rat, endogenous in neonatal rat cardiomyocytes (from UniProt Q91Z63 1-351) |
| – | binds | SERCA2a (sarcoplasmic reticulum Ca2+-ATPase 2a), mouse, endogenous in cardiac tissue (from UniProt O55143-2 1-998) |
